PubChem BioAssay AID652243, Drosophila RNAi Screening Center | 2013
Test: 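Fly genes required for human androgen receptor driven transcription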 (primary screen). Cells: Drosophila S2R+ cells. Reagent: long dsRNA against Drosophila genes. Timing: 72 h (48 h, then 24 h hormone). Conditions: synthetic androgen R1881 at 10 nM for 24 h. Detection: 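Firefly light from an androgen-responsive reporter and Renilla control light per well, raw and unnormalised, for each of two replicates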. Direction: firefly reporter light: higher = more light from androgen-responsive reporter; Renilla control light: higher = more constitutive control signal (cell number, transfection). Call rule: 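Hit when the log firefly-to-Renilla ratio dropped or increased by a fixed fold versus the mean of GFP or LacZ controls across duplicate plates; lowering cut given as 1.5 and as 3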. Meaning of the calls: active = hit: reporter lowered or raised; inactive = no hit.
The screen tested about 24,000 reagents; shown is a random part of those that have a named target and a result. Of all reagents, 246 (1%) got an active call. 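Plates not normalised; calls are printed but the firefly/Renilla ratio behind them is not deposited; fold cut for lowering reported inconsistently.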 The raw values are shown without normalisation. A plus sign joins genes that one reagent is predicted to hit. Not given: the amount of reagent.

The first 2 records, ahead of the listing:
| predicted target | amplicon | firefly reporter light, replicate 1 | firefly reporter light, replicate 2 | Renilla control light, replicate 1 | Renilla control light, replicate 2 | outcome |
| --- | --- | --- | --- | --- | --- | --- |
| He + NimB5 | DRSC22876 | 4.19e5 | 6.77e5 | 1.36e6 | 1.73e6 | inactive |
| Skp2 | DRSC12329 | 19194 | 31499 | 3.03e5 | 2.31e5 | inactive |

Main list, from the first entry:
| predicted target | amplicon | firefly reporter light, replicate 1 | firefly reporter light, replicate 2 | Renilla control light, replicate 1 | Renilla control light, replicate 2 | outcome |
| --- | --- | --- | --- | --- | --- | --- |
| He + NimB5 | DRSC22876 | 4.19e5 | 6.77e5 | 1.36e6 | 1.73e6 | inactive |
| Skp2 | DRSC12329 | 19194 | 31499 | 3.03e5 | 2.31e5 | inactive |
| Skp2 | DRSC28203 | 4.91e5 | 4.67e5 | 1.82e6 | 1.61e6 | inactive |
| CG34332 | DRSC38705 | 7.48e5 | 6.87e5 | 1.73e6 | 2.11e6 | inactive |
| CG30429 | DRSC04040 | 1.11e5 | 1.83e5 | 3.18e5 | 5.35e5 | inactive |
| Debcl | DRSC04965 | 1.06e6 | 1.05e6 | 2.16e6 | 2.60e6 | inactive |
| Debcl | DRSC30010 | 4.61e5 | 4.17e5 | 1.03e6 | 1.16e6 | inactive |
| CG10962 | DRSC18421 | 93948 | 1.03e5 | 8.86e5 | 6.36e5 | inactive |
| CG10962 | DRSC29512 | 2.26e5 | 2.64e5 | 3.11e5 | 3.11e5 | inactive |
| Spn42Da | DRSC05025 | 2.53e5 | 2.05e5 | 1.88e6 | 1.46e6 | inactive |
| Aduk | DRSC16451 | 1.87e5 | 1.77e5 | 2.55e6 | 2.15e6 | inactive |
| Aduk | DRSC29838 | 6.34e5 | 4.29e5 | 1.45e6 | 1.55e6 | inactive |
| Aduk | DRSC37073 | – | – | – | – | inactive |
| Cyp6t3 | DRSC07388 | 4.59e5 | 2.05e5 | 1.53e6 | 1.25e6 | inactive |
| CG3698 | DRSC11749 | 73581 | 63375 | 4.33e5 | 3.65e5 | inactive |
| CG3698 | DRSC26417 | 2.43e5 | 3.21e5 | 3.71e5 | 6.94e5 | inactive |
| whd | DRSC07351 | 1.38e6 | 8.65e5 | 1.87e6 | 1.38e6 | inactive |
| Cpr49Ae | DRSC07201 | 6.01e5 | 4.99e5 | 1.44e6 | 1.44e6 | inactive |
| Cpr49Ae | DRSC27662 | 4.32e5 | 4.11e5 | 6.01e5 | 9.27e5 | inactive |
| beat-Ib | DRSC03490 | 1.30e5 | 1.89e5 | 1.92e6 | 1.89e6 | inactive |
| Vha14-2 | DRSC12145 | 58624 | 58720 | 2.01e6 | 1.26e6 | inactive |
| RpL19 | DRSC04649 | 5.99e5 | 5.61e5 | 8.56e5 | 9.59e5 | inactive |
| RpL19 | DRSC28391 | 4.18e5 | 6.64e5 | 5.58e5 | 8.95e5 | inactive |
| Vha14-1 | DRSC07571 | 36400 | 59593 | 7.42e5 | 7.42e5 | inactive |
